Assay results reported in US20260097098A1.
Results are given in words; binding and its absence hold for the method and conditions named. Some entries that bind do so weakly or less than the wild type.

Protein sequences, listed by entry. Tags and fused reporters are not part of them. Lines headed by an entry give the natural chain unless they say otherwise; changes in a name come on top. Chains listed by the source or under a name are the forms on record and can include a tag or linker.
human VEGF165 (non-biotinylated) (P15692, form named): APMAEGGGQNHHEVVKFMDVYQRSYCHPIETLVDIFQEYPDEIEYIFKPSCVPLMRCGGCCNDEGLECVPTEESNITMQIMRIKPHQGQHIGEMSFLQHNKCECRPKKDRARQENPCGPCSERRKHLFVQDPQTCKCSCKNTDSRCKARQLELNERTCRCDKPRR

Molecular target: V1-2-3-4-Fc (Ig-like domains 1, 2, 3 and 4 of VEGFR-1 fused to human IgG1 Fc)
Experiment: competition, unlabelled VEGF165 varied against biotinylated VEGF165 (100 ng/ml) on coated receptor

human VEGF165 (non-biotinylated) (from UniProt P15692 27-191) (ligand)
binding: binds
